From patent US8329736B2, “Triazole compounds that modulate HSP90 activity” (Synta Pharmaceuticals, Corp., priority 2006, dated 2012)
Some entries share one result that the patent states for a list of compounds.

Test system: Her2
Experiment: Her2 degradation IC50 (Example B, Method 2, Table 2)
Format: cell-based, human
Settings: read-out: IC50 range of compounds of the invention for Her2 degradation

| SMILES | IC50 |
| --- | --- |
| COc1ccc(Cn2c(S)nnc2-c2cc(C(C)C)c(O)cc2O)cc1 [Compound 1, 3-(2,4-hydroxy-5-isopropyl-phenyl)-4-(4-methoxy-benzyl)-5-mercapto-4H-[1,2,4]triazole] | < 500 nM |
| CC(C)c1cc(-c2nnc(S)n2Cc2ccc3c(c2)OCO3)c(O)cc1O [Compound 2, 3-(2,4-hydroxy-5-isopropyl-phenyl)-4-[(benzo[1,3]dioxol-5-yl)-methyl]-5-mercapto-4H-[1,2,4]triazole] | < 500 nM |
| CC(C)c1cc(-c2nnc(S)n2Cc2ccc(Cl)c(Cl)c2)c(O)cc1O [Compound 3, 3-(2,4-hydroxy-5-isopropyl-phenyl)-4-(3,4-dichloro-benzyl)-5-mercapto-4H-[1,2,4]triazole] | > 1000 nM |
| COc1cc(Cn2c(S)nnc2-c2cc(C(C)C)c(O)cc2O)cc(OC)c1OC [Compound 4, 3-(2,4-hydroxy-5-isopropyl-phenyl)-4-(3,4,5-trimethoxy-benzyl)-5-mercapto-4H-[1,2,4]triazole] | > 1000 nM |
| COCc1ccc(Cn2c(S)nnc2-c2cc(C(C)C)c(O)cc2O)cc1 [Compound 5, 3-(2,4-hydroxy-5-isopropyl-phenyl)-4-(4-methoxymethyl-benzyl)-5-mercapto-4H-[1,2,4]triazole] | < 500 nM |
| CC(C)c1cc(-c2nnc(S)n2Cc2ccc3c(ccn3C)c2)c(O)cc1O [Compound 8, 3-(2,4-hydroxy-5-isopropyl-phenyl)-4-[(1-methyl-1H-indol-5-yl)-methyl]-5-mercapto-4H-[1,2,4]triazole] | > 1000 nM |
| COc1ccc(Cn2c(S)nnc2-c2cc(C(C)C)c(O)cc2O)cc1N(C)C [Compound 9, 3-(2,4-hydroxy-5-isopropyl-phenyl)-4-(3-dimethylamino-4-methoxy-benzyl)-5-mercapto-4H-[1,2,4]triazole] | > 1000 nM |
| COc1cccc(Cn2c(S)nnc2-c2cc(C(C)C)c(O)cc2O)c1OC [Compound 10, 3-(2,4-hydroxy-5-isopropyl-phenyl)-4(3,3-dimethoxy-benzyl)-5-mercapto-4H-[1,2,4]triazole] | > 1000 nM |
| CC(C)c1cc(-c2nnc(S)n2Cc2ccc(Cl)nc2)c(O)cc1O [Compound 11, 3-(2,4-hydroxy-5-isopropyl-phenyl)-4-[(6-chloro-pyridine-3-yl)-methyl]-5-mercapto-4H-[1,2,4]triazole] | > 1000 nM |
| CC(C)c1cc(-c2nnc(S)n2Cc2ccc(N(C)C)nc2)c(O)cc1O [Compound 13, 3-(2,4-hydroxy-5-isopropyl-phenyl)-4-[(6-dimethylamino-pyridine-3-yl)-methyl]-5-mercapto-4H-[1,2,4]triazole] | > 1000 nM |
| COCc1ccc(Cn2c(O)nnc2-c2cc(C(C)C)c(O)cc2O)cc1 [Compound 14, 3-(2,4-hydroxy-5-isopropyl-phenyl)-4-(methoxymethyl-benzyl)-5-hydroxy-4H-[1,2,4]triazole] | < 500 nM |
| CC(C)Oc1ccc(Cn2c(O)nnc2-c2cc(C(C)C)c(O)cc2O)cc1 [Compound 17, 3-(2,4-hydroxy-5-isopropyl-phenyl)-4-(4-isopropoxy-benzyl)-5-hydroxy-4H-[1,2,4]triazole] | < 500 nM |
| COC(C)(C)c1ccc(Cn2c(O)nnc2-c2cc(C(C)C)c(O)cc2O)cc1 [Compound 18, 3-(2,4-hydroxy-5-isopropyl-phenyl)-4-[4-(1-methoxy-1-methyl-ethyl)-benzyl]-5-hydroxy-4H-[1,2,4]triazole] | < 500 nM |
| CC(C)c1cc(-c2nnc(O)n2Cc2ccc(C(=O)O)cc2)c(O)cc1O [Compound 19, 3-(2,4-hydroxy-5-isopropyl-phenyl)-4-(4-carboxy-benzyl)-5-hydroxy-4H-[1,2,4]triazole] | > 1000 nM |
| CC(C)c1cc(-c2nnc(S)n2Cc2ccc3c(c2)OCCO3)c(O)cc1O [Compound 21, 3-(2,4-hydroxy-5-isopropyl-phenyl)-4-[(2,3-dihydro-benzo[1,4]dioxin-6-yl)-methyl]-5-mercapto-4H-[1,2,4]triazole] | < 500 nM |
| COc1cc(Cn2c(S)nnc2-c2cc(C(C)C)c(O)cc2O)cc(OC)c1 [Compound 23, 3-(2,4-hydroxy-5-isopropyl-phenyl)-4-(3,5-dimethoxy-benzyl)-5-mercapto-4H-[1,2,4]triazole] | > 1000 nM |
| CC(C)c1cc(-c2nnc(S)n2Cc2ccc(OCCCn3ccnn3)cc2)c(O)cc1O [Compound 25, 3-(2,4-hydroxy-5-isopropyl-phenyl)-4-{4-[3-([1,2,3]triazol-1yl)-propoxy]-benzyl}-5-mercapto-4H-[1,2,4]triazole] | > 1000 nM |
| CC(C)c1cc(-c2nnc(S)n2Cc2ccc(CN3CCOCC3)cc2)c(O)cc1O [Compound 26, 3-(2,4-hydroxy-5-isopropyl-phenyl)-4-[4-(morpholin-4-yl-methyl)-benzyl]-5-mercapto-4H-[1,2,4]triazole] | < 500 nM |
| CC(C)c1cc(-c2nnc(S)n2Cc2ccc(OCCCN3CCCC3)cc2)c(O)cc1O [Compound 27, 3-(2,4-hydroxy-5-isopropyl-phenyl)-4-{4-[3-(pyrrol-1-yl)-propoxy]-benzyl}-5-mercapto-4H-[1,2,4]triazole] | > 1000 nM |

| SMILES | IC50 |
| --- | --- |
| CCN1CCN(CCOc2ccc(Cn3c(S)nnc3-c3cc(C(C)C)c(O)cc3O)cc2)CC1 [Compound 28, 3-(2,4-hydroxy-5-isopropyl-phenyl)-4-{4-[2-(4-ethyl-piperazin-1-yl)-ethoxy]-benzyl}-5-mercapto-4H-[1,2,4]triazole] | > 1000 nM |
| CC(C)c1cc(-c2nnc(S)n2Cc2ccc(OCCN3CCN(C)CC3)cc2)c(O)cc1O [Compound 29, 3-(2,4-hydroxy-5-isopropyl-phenyl)-4-{4-[2-(4-methyl-piperazin-1-yl)-ethoxy]-benzyl}-5-mercapto-4H-[1,2,4]triazole] | > 1000 nM |
| CCCCOc1ccc(Cn2c(S)nnc2-c2cc(C(C)C)c(O)cc2O)cc1OCCOC [Compound 30, 3-(2,4-hydroxy-5-isopropyl-phenyl)-4-[3-(2-methoxy-ethoxy)-4-butoxy-benzyl]-5-mercapto-4H-[1,2,4]triazole] | > 1000 nM |
| CC(C)c1cc(-c2nnc(S)n2Cc2cccc(N3CCOCC3)c2)c(O)cc1O [Compound 31, 3-(2,4-hydroxy-5-isopropyl-phenyl)-4-[3-(morpholino-4-yl)-benzyl]-5-mercapto-4H-[1,2,4]triazole] | < 500 nM |
| CC(C)c1cc(-c2nnc(S)n2Cc2ccccc2C(F)(F)F)c(O)cc1O [Compound 32, 3-(2,4-hydroxy-5-isopropyl-phenyl)-4-(2-trifluoromethyl-benzyl)-5-mercapto-4H-[1,2,4]triazole] | > 1000 nM |
| COCCOc1ccc(Cn2c(S)nnc2-c2cc(C(C)C)c(O)cc2O)cc1OC [Compound 33, 3-(2,4-hydroxy-5-isopropyl-phenyl)-4-{3-methoxy-4-(2-methoxy-ethoxy)-benzyl}-5-mercapto-4H-[1,2,4]triazole] | < 500 nM |
| CC(C)c1cc(-c2nnc(S)n2Cc2ccc(OCCN3CCOCC3)cc2)c(O)cc1O [Compound 35, 3-(2,4-hydroxy-5-isopropyl-phenyl)-4-{4-[2-(morpholino-4-yl)-ethoxy]-benzyl}-5-mercapto-4H-[1,2,4]triazole] | > 1000 nM |
| CC(C)c1cc(-c2nnc(S)n2Cc2ccc(F)cc2)c(O)cc1O [Compound 36, 3-(2,4-hydroxy-5-isopropyl-phenyl)-4-(4-fluoro-benzyl)-5-mercapto-4H-[1,2,4]triazole] | > 1000 nM |
| CC(C)c1cc(-c2nnc(S)n2Cc2cccc(CN3CCN(C)CC3)c2)c(O)cc1O [Compound 37, 3-(2,4-hydroxy-5-isopropyl-phenyl)-4-{3-[(4-methyl-piperazin-1-yl)-methyl]-benzyl}-5-mercapto-4H-[1,2,4]triazole] | > 1000 nM |
| CC(C)c1cc(-c2nnc(S)n2Cc2ccc(OCCCN3CCOCC3)cc2)c(O)cc1O [Compound 39, 3-(2,4-hydroxy-5-isopropyl-phenyl)-4-{4-[3-(morpholin-4-yl)-propoxy]-benzyl}-5-mercapto-4H-[1,2,4]triazole] | > 1000 nM |
| CC(C)c1cc(-c2nnc(O)n2Cc2ccc3c(c2)OCO3)c(O)cc1O [Compound 41, 3-(2,4-hydroxy-5-isopropyl-phenyl)-4-[(benzo[1,3]dioxol-5-yl)-methyl]-5-hydroxy-4H-[1,2,4]triazole] | < 500 nM |
| CC(C)c1cc(-c2nnc(O)n2Cc2cccc(CN3CCOCC3)c2)c(O)cc1O [Compound 42, 3-(2,4-hydroxy-5-isopropyl-phenyl)-4-[3-(morpholin-4ylmethyl)-benzyl]-5-hydroxy-4H-[1,2,4]triazole] | < 500 nM |
| CC(C)c1cc(-c2nnc(O)n2Cc2ccc(C3OCCO3)cc2)c(O)cc1O [Compound 82, 4-(4-(4-(1,3-dioxolan-2-yl)benzyl)-5-hydroxy-4H-1,2,4-triazol-3-yl)-6-isopropylbenzene-1,3-diol] | < 500 nM |
| CC(C)c1cc(-c2nnc(O)n2Cc2ccc(COc3ccccc3)cc2)c(O)cc1O [Compound 83, 4-(5-hydroxy-4-(4-(phenoxymethyl)benzyl)-4H-1,2,4-triazol-3-yl)-6-isopropylbenzene-1,3-diol] | > 1000 nM |
| CC(C)c1cc(-c2nnc(O)n2Cc2ccc(CN3CCCC3)cc2)c(O)cc1O [Compound 87, 4-(5-hydroxy-4-(4-(pyrrolidin-1-ylmethyl)benzyl)-4H-1,2,4-triazol-3-yl)-6-isopropylbenzene-1,3-diol] | < 500 nM |
| CCN(CC)Cc1ccc(Cn2c(O)nnc2-c2cc(C(C)C)c(O)cc2O)cc1 [Compound 88, 4-(4-(4-((diethylamino)methyl)benzyl)-5-hydroxy-4H-1,2,4-triazol-3-yl)-6-isopropylbenzene-1,3-diol] | < 500 nM |
| CC(C)c1cc(-c2nnc(O)n2Cc2ccc(CN(C)C)cc2)c(O)cc1O [Compound 89, 4-(4-(4-((dimethylamino)methyl)benzyl)-5-hydroxy-4H-1,2,4-triazol-3-yl)-6-isopropylbenzene-1,3-diol] | < 500 nM |
| CC(C)NCc1ccc(Cn2c(O)nnc2-c2cc(C(C)C)c(O)cc2O)cc1 [Compound 90, 4-(5-hydroxy-4-(4-((isopropylamino)methyl)benzyl)-4H-1,2,4-triazol-3-yl)-6-isopropylbenzene-1,3-diol] | < 500 nM |
| CNCc1ccc(Cn2c(O)nnc2-c2cc(C(C)C)c(O)cc2O)cc1 [Compound 91, 4-(5-hydroxy-4-(4-((methylamino)methyl)benzyl)-4H-1,2,4-triazol-3-yl)-6-isopropylbenzene-1,3-diol] | > 1000 nM |
